Reference: PubChem BioAssay AID1259424 (University of Nebraska Medical Center, 2018)
The deposit covers about 14,000 reagents; below is a part drawn at random. 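Higher correlation or smaller distance means closer resemblance to KSR1 loss; control wells, including KSR1 knockdowns, recur on many plates.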 Not all columns of the deposit are shown. The record does not give: the time to read-out.

Screen: 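Find knockdowns that reproduce the expression shifts seen after KSR1 loss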 (primary screen)
System: human HCT116 colon cancer cells
Knock-down reagent: siRNA pool against human genes, 50 nM
Measured: 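Log2 levels of six mRNAs (branched-DNA multiplex), adjusted by two reference genes and the non-targeting median, then scored against the average KSR1 knockdown pattern as Pearson r and euclidean distance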
Scale: mean correlation with KSR1 profile: higher = expression change more like KSR1 knockdown

For MUL1, the values are mean correlation with KSR1 profile 0.675.
Knock-down of SOX5 gave: mean correlation with KSR1 profile 0.0819.
Silencing of ZKSCAN1 gave: mean correlation with KSR1 profile -0.372.
After knock-down of IDH3A the results were mean correlation with KSR1 profile 0.593.
Against VSIG10, the values are mean correlation with KSR1 profile -0.0849.
POFUT1 showed mean correlation with KSR1 profile -0.542.
ACLY gave mean correlation with KSR1 profile 0.0933.
Silencing of ALG9 resulted in: mean correlation with KSR1 profile 0.266.

Reformatted: results already given
target,mean correlation with KSR1 profile
POFUT1,-0.542
ACLY,0.0933

Further records:
With knock-down of WNT9B, the record shows mean correlation with KSR1 profile -0.43.
For NGB, the values are mean correlation with KSR1 profile -0.569.
After knock-down of KDELR3 the results were mean correlation with KSR1 profile -0.519.
Silencing of LINC00115 came out at: mean correlation with KSR1 profile 0.38.
For RELN, the entry reads mean correlation with KSR1 profile 0.196.
After knock-down of AP3B1, the screen gave mean correlation with KSR1 profile -0.285.
After knock-down of COPS2, the record shows mean correlation with KSR1 profile -0.435.
For CELSR2 the deposit lists mean correlation with KSR1 profile 0.883.
BBOX1 gave mean correlation with KSR1 profile 0.144.
With knock-down of LMNA, the screen gave mean correlation with KSR1 profile -0.769.
After knock-down of GALNT8 the results were mean correlation with KSR1 profile -0.17.
